The list shows a part of the results.
Tests used:
Assay in all cases: log2 fold change, soluble protein after heating vs DMSO (PISA); higher = thermal stabilisation; K562 lysate, 10 uM; active = over 0.2 and 3.5 SD of the protein, either way, in both replicates (recomputed)
lapatinib = compound: CS(=O)(=O)CCNCc1ccc(-c2ccc3ncnc(Nc4ccc(OCc5cccc(F)c5)c(Cl)c4)c3c2)o1 [lapatinib]
In short: (§1)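 Log-two fold change in thermal stability relative to solvent controls is reported from duplicates. For each sample, crude K562 extract from dounce-homogenised pellets in PBS pH 7.4 with 1 mM MgCl2, at 1 mg/mL protein, was treated with 10 μM compound for 30 min. Aliquots heated for 3 min across 48°C-58°C were pooled, brought to 0.5% NP-40 at 4°C and cleared at 21,000xg for 90 min. The supernatant was quantified by TMTpro 16plex LC-MS/MS with channel sums equalised.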

Sequences of proteins named here, by UniProt entry; tags and fusion partners are left off. A change or cut given only in a name is not applied to a line headed by its entry.
UniProt P54132: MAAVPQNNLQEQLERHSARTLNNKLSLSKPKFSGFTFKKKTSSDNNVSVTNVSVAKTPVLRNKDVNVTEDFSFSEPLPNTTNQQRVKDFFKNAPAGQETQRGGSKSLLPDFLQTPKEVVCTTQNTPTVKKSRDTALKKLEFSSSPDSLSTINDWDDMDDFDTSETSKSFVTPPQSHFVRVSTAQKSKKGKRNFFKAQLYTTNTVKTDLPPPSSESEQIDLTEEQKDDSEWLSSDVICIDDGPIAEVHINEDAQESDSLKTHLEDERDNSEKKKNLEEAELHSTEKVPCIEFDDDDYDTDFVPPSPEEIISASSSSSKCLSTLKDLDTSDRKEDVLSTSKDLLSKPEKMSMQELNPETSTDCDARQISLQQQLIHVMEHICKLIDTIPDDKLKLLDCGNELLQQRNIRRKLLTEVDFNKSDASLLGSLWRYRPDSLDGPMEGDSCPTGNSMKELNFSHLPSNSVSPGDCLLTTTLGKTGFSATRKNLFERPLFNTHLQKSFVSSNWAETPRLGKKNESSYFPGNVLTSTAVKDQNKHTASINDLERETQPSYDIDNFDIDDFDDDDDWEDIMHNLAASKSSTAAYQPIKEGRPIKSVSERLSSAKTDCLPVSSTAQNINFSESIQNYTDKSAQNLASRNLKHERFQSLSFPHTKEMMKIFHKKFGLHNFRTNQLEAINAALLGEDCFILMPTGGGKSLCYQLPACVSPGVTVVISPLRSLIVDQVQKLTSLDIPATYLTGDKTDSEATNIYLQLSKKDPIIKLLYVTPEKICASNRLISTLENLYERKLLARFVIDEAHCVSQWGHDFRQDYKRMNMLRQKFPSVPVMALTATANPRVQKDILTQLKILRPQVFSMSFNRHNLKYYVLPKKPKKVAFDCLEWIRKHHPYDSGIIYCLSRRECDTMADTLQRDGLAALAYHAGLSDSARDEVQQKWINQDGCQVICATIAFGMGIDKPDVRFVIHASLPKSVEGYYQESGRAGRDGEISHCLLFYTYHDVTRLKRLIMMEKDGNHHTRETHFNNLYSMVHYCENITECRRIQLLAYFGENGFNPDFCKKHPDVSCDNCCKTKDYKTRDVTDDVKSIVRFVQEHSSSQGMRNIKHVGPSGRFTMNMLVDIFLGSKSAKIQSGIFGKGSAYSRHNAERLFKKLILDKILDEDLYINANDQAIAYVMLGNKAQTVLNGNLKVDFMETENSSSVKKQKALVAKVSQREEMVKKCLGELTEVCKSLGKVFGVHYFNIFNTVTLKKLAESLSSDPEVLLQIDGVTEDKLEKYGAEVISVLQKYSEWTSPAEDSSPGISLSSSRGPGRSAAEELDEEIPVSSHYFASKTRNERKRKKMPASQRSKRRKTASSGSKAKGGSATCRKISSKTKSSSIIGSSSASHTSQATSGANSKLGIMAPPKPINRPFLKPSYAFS
UniProt Q14457, whole entry, looked up: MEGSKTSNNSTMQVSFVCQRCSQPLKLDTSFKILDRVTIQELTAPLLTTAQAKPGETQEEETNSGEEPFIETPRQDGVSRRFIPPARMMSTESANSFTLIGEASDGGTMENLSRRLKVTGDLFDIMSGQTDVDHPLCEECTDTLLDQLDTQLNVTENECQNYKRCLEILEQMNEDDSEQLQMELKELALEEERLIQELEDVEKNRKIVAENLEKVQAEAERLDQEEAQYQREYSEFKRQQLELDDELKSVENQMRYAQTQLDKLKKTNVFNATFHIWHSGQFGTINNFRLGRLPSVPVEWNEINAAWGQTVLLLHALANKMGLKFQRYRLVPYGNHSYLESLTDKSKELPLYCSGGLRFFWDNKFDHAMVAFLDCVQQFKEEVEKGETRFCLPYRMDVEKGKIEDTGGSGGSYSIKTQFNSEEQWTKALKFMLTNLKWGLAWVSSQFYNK
UniProt Q6QNY1: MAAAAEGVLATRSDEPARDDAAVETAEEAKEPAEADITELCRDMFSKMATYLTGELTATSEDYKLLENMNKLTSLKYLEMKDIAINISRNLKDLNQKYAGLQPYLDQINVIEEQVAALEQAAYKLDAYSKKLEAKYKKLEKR
UniProt O14867: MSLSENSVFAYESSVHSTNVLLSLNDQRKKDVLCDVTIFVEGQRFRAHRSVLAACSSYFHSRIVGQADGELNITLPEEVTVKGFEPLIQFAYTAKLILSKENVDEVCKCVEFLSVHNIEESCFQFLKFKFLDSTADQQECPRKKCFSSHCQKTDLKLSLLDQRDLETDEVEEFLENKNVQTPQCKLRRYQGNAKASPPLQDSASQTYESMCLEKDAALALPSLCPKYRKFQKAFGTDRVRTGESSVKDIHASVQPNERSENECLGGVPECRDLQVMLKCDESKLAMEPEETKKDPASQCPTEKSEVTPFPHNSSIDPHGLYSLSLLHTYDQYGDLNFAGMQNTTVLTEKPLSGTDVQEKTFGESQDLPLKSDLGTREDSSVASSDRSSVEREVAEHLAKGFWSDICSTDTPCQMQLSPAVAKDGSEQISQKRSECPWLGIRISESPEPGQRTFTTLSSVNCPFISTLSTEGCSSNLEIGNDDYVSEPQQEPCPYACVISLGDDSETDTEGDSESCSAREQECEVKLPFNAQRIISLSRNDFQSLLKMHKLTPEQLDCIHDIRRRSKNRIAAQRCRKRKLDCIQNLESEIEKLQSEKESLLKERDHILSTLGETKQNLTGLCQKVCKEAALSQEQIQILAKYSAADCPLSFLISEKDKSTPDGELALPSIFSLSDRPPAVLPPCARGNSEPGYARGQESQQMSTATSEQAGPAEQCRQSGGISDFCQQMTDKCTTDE
UniProt P56945: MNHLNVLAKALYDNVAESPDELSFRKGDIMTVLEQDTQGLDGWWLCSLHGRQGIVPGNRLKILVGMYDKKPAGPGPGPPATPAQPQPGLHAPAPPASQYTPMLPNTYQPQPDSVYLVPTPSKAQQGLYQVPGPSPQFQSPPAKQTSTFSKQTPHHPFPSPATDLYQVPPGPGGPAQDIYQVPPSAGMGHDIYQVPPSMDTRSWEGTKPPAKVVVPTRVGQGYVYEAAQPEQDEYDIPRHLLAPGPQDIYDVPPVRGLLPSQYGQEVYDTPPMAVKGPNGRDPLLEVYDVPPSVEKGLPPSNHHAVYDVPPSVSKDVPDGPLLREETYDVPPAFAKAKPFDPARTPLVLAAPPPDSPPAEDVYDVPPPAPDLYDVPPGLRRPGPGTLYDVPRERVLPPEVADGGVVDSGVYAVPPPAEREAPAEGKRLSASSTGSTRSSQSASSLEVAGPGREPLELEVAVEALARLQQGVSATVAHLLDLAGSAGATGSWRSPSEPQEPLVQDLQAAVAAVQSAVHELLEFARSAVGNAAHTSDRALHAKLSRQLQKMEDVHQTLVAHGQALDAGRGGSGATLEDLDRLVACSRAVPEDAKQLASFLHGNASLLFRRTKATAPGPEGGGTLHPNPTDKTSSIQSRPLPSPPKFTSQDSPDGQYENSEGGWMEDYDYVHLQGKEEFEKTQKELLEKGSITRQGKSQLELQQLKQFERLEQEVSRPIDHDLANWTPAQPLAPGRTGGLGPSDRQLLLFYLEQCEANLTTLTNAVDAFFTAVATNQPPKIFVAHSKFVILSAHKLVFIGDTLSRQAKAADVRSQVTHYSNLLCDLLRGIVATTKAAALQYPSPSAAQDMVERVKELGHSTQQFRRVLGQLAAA
UniProt Q14137: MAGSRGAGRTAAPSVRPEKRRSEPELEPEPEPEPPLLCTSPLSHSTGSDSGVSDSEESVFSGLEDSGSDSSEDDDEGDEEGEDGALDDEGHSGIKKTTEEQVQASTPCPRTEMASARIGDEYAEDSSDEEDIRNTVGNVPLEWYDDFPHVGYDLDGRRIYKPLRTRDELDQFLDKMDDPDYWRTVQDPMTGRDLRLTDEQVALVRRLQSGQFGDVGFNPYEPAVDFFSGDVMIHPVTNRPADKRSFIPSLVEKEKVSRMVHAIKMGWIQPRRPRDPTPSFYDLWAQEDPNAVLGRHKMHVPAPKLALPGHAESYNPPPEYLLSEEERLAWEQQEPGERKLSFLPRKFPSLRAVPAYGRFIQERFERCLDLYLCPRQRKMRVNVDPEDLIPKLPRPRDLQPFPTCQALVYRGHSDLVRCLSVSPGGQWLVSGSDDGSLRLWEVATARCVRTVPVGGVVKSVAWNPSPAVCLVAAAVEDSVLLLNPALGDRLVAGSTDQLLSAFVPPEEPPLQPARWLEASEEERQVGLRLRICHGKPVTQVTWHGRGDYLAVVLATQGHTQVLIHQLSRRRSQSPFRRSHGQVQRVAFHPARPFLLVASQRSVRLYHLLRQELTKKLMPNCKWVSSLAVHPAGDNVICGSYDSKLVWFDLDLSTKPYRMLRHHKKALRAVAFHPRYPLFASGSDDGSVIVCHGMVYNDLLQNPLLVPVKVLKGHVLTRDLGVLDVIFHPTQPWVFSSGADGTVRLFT
UniProt Q86UU0: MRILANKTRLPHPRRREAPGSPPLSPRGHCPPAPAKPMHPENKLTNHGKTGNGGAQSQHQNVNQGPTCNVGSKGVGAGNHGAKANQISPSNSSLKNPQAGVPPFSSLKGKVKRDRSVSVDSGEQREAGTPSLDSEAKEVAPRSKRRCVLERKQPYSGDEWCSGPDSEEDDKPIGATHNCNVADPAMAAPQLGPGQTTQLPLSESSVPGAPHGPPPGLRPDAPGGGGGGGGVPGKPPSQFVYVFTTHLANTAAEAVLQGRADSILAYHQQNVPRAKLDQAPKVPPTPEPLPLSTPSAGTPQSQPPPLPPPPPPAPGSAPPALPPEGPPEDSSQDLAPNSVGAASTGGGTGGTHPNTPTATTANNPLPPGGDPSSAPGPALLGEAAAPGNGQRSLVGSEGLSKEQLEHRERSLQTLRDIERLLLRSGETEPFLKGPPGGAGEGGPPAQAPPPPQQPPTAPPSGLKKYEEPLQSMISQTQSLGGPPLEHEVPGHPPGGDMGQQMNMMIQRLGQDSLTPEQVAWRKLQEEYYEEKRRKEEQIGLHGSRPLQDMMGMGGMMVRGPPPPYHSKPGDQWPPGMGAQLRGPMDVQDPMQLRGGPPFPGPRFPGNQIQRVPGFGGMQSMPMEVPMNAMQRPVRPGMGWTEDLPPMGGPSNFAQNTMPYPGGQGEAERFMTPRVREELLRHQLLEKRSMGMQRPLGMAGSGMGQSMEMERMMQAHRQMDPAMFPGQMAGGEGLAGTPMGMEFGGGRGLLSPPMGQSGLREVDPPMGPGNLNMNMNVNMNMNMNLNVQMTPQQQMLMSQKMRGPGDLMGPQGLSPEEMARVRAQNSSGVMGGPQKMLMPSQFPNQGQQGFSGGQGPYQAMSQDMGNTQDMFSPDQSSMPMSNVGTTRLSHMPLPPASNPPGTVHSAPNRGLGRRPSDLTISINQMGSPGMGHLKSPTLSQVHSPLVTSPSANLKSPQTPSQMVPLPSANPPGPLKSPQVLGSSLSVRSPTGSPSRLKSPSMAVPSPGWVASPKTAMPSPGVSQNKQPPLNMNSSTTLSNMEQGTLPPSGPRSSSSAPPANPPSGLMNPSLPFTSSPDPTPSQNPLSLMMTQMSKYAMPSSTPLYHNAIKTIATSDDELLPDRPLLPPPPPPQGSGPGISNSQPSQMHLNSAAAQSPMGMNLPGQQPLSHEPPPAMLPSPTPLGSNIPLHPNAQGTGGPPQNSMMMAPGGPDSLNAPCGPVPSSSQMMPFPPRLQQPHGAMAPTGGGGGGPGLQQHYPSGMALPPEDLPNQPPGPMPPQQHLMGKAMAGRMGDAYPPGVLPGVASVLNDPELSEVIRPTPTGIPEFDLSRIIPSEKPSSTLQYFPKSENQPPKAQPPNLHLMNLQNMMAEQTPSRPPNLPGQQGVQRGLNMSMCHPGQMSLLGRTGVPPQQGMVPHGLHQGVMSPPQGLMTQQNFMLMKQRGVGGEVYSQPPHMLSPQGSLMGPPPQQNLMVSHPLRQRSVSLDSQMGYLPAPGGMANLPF
UniProt Q99933: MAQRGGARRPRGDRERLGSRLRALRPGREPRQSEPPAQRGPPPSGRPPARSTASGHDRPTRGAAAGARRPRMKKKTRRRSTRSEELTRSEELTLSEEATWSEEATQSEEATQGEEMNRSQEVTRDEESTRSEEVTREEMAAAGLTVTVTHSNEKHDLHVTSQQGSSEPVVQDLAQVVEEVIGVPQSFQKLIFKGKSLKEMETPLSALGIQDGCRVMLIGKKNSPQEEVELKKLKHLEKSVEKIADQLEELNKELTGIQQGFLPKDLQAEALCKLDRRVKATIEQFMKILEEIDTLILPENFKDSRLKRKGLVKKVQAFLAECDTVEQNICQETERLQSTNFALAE
UniProt P21953: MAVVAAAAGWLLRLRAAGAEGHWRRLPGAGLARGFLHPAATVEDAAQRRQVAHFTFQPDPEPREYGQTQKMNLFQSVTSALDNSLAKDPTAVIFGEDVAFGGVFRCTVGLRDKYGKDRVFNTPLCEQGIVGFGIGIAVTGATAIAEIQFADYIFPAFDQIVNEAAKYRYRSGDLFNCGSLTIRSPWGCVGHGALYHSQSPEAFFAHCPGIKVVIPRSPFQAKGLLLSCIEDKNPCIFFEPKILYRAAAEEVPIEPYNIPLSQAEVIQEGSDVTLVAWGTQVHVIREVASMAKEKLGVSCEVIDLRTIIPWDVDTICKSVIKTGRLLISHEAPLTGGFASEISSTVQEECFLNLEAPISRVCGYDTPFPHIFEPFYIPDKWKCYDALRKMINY

pictilisib = compound: CS(=O)(=O)N1CCN(Cc2cc3nc(-c4cccc5[nH]ncc45)nc(N4CCOCC4)c3s2)CC1 [pictilisib]
In short: as §1

crizotinib = compound: C[C@@H](Oc1cc(-c2cnn(C3CCNCC3)c2)cnc1N)c1c(Cl)ccc(F)c1Cl [crizotinib]
In short: as §1

[1] = compound: C[C@H](C1=CC=C(C=C1)C(=O)NC2=C3C=CNC3=NC=C2)N
In short: as §1

duvelisib = compound: C[C@H](Nc1ncnc2nc[nH]c12)c1cc2cccc(Cl)c2c(=O)n1-c1ccccc1 [duvelisib]
In short: as §1

gandotinib = compound: Cc1cc(Nc2cc(CN3CCOCC3)c3nc(C)c(Cc4ccc(Cl)cc4F)n3n2)n[nH]1 [gandotinib]
In short: as §1

tozasertib = compound: Cc1cc(Nc2cc(N3CCN(C)CC3)nc(Sc3ccc(NC(=O)C4CC4)cc3)n2)n[nH]1 [tozasertib]
In short: as §1

doramapimod = compound: Cc1ccc(-n2nc(C(C)(C)C)cc2NC(=O)Nc2ccc(OCCN3CCOCC3)c3ccccc23)cc1 [doramapimod]
In short: as §1

bafetinib = compound: Cc1ccc(NC(=O)c2ccc(CN3CC[C@H](N(C)C)C3)c(C(F)(F)F)c2)cc1Nc1nccc(-c2cncnc2)n1 [bafetinib]
In short: as §1

[2] = compound: Cc1cccc(CC(=O)N2CCc3c2ccc(-c2cn(C)c4ncnc(N)c24)c3F)n1
In short: as §1

nilotinib = compound: Cc1cn(-c2cc(NC(=O)c3ccc(C)c(Nc4nccc(-c5cccnc5)n4)c3)cc(C(F)(F)F)c2)cn1 [nilotinib]
In short: as §1

[3] = compound: Cc1nc(Nc2n[nH]c3c2CN(C(=O)N[C@H](CN(C)C)c2ccccc2)C3(C)C)c2sccc2n1
In short: as §1

dasatinib = compound: Cc1nc(Nc2ncc(C(=O)Nc3c(C)cccc3Cl)s2)cc(N2CCN(CCO)CC2)n1 [dasatinib]
In short: as §1

[4] = compound: Cc1ncc(-c2ccnc(Nc3ccc(S(C)(=O)=O)cc3)n2)n1C(C)C
In short: as §1

[5] = compound: Cn1cc(-c2ccc3c(c2)CCN3C(=O)Cc2cccc(C(F)(F)F)c2)c2c(N)ncnc21
In short: as §1

quisinostat = compound: Cn1cc(CNCC2CCN(c3ncc(C(=O)NO)cn3)CC2)c2ccccc21 [quisinostat]
In short: as §1

tipifarnib = compound: Cn1cncc1[C@@](N)(c1ccc(Cl)cc1)c1ccc2c(c1)c(-c1cccc(Cl)c1)cc(=O)n2C [tipifarnib]
In short: as §1

[6] = compound: NC(=O)Nc1cc(-c2cccc(F)c2)sc1C(=O)N[C@H]1CCCNC1
In short: as §1

[7] = compound: NC(=O)c1cnc(N[C@@H]2CCCC[C@@H]2N)nc1Nc1cccc(-n2nccn2)c1
In short: as §1

[8] = compound: NC1(c2ccc(-c3nc4ccn5c(=O)[nH]nc5c4cc3-c3ccccc3)cc2)CCC1
In short: as §1

Measured: log2 fold change

BLM (UniProt P54132)
inactive: lapatinib -0.007 | pictilisib -0.068 | crizotinib -0.003 | [1] 0.192 | duvelisib 0.018 | tozasertib 0.057 | doramapimod 0.018 | bafetinib -0.049 | [2] -0.251 | nilotinib -0.002 | [3] 0.014 | dasatinib -0.013 | [4] 0 | [5] 0.048 | quisinostat 0.109 | tipifarnib 0.041 | [6] -0.013 | [7] -0.025 | [8] 0.018
active: gandotinib -0.267

BECN1 (UniProt Q14457)
inactive: lapatinib -0.019 | pictilisib 0.056 | crizotinib 0.002 | [1] 0.024 | duvelisib 0.105 | gandotinib 0.056 | tozasertib 0.027 | doramapimod 0.005 | bafetinib 0.032 | [2] -0.051 | nilotinib -0.025 | [3] -0.007 | dasatinib -0.016 | [4] 0.026 | [5] 0.068 | quisinostat -0.004 | tipifarnib -0.018 | [6] 0.063 | [7] 0.031 | [8] 0.082

BST2 (UniProt Q10589)
inactive: lapatinib -0.035 | pictilisib -0.021 | crizotinib 0.009 | [1] -0.055 | duvelisib -0.003 | gandotinib 0.032 | tozasertib -0.029 | doramapimod -0.008 | bafetinib -0.042 | [2] 0.027 | nilotinib 0.066 | [3] -0.02 | dasatinib 0.025 | [4] 0.009 | [5] 0.018 | quisinostat -0.02 | tipifarnib 0.053 | [6] 0.06 | [7] -0.014 | [8] 0.044

BRD2 isoform 2 (UniProt P25440)
inactive: lapatinib 0.014 | pictilisib 0.012 | crizotinib 0.024 | [1] 0.128 | duvelisib -0.007 | gandotinib -0.133 | tozasertib 0 | doramapimod -0.084 | bafetinib -0.131 | [2] -0.186 | nilotinib 0.012 | [3] 0.15 | dasatinib 0.011 | [4] -0.024 | [5] -0.048 | quisinostat -0.028 | tipifarnib -0.035 | [6] 0.028 | [7] -0.161 | [8] -0.064

BTF3L4 (UniProt Q96K17)
inactive: lapatinib -0.015 | pictilisib 0.011 | crizotinib 0.052 | [1] -0.114 | duvelisib 0.018 | gandotinib 0.085 | tozasertib -0.039 | doramapimod -0.046 | bafetinib 0.136 | [2] 0.017 | nilotinib -0.006 | [3] -0.009 | dasatinib -0.013 | [4] -0.014 | [5] -0.053 | quisinostat -0.005 | tipifarnib 0.016 | [6] 0.055 | [7] -0.035 | [8] 0.024

BLOC1S2 (UniProt Q6QNY1)
inactive: lapatinib 0.029 | pictilisib -0.084 | crizotinib -0.259 | [1] -0.026 | duvelisib 0.145 | gandotinib 0.144 | tozasertib 0.145 | doramapimod -0.003 | bafetinib -0.032 | [2] 0.052 | nilotinib -0.051 | [3] 0.099 | dasatinib -0.082 | [4] -0.082 | [5] 0.043 | quisinostat -0.123 | tipifarnib -0.103 | [6] -0.096 | [7] -0.005 | [8] 0.067

BACH1 (UniProt O14867)
inactive: lapatinib 0.06 | pictilisib -0.034 | crizotinib -0.005 | [1] -0.006 | duvelisib 0.043 | gandotinib 0.027 | tozasertib 0.027 | doramapimod 0.019 | bafetinib 0 | [2] 0.004 | nilotinib -0.026 | [3] 0.02 | dasatinib -0.011 | [4] -0.003 | [5] 0.01 | quisinostat -0.027 | tipifarnib 0.044 | [6] 0.046 | [7] 0.033 | [8] 0.012

BCAR1 isoform 6 (UniProt P56945)
inactive: lapatinib -0.044 | pictilisib 0.003 | crizotinib 0.003 | [1] 0.071 | duvelisib 0.008 | gandotinib -0.113 | tozasertib 0.01 | doramapimod -0.039 | bafetinib -0.073 | [2] -0.104 | nilotinib -0.021 | [3] -0.015 | dasatinib 0.001 | [4] -0.068 | [5] 0.018 | quisinostat 0.021 | tipifarnib -0.006 | [6] 0.016 | [7] -0.009 | [8] 0.008

BOP1 (UniProt Q14137)
inactive: lapatinib -0.002 | pictilisib -0.003 | crizotinib -0.017 | [1] 0.001 | duvelisib -0.002 | gandotinib -0.03 | tozasertib 0.021 | doramapimod 0.016 | bafetinib -0.019 | [2] 0.015 | nilotinib -0.009 | [3] 0.004 | dasatinib -0.022 | [4] 0.005 | [5] -0.006 | quisinostat -0.02 | tipifarnib 0.008 | [6] 0.01 | [7] 0.02 | [8] 0.002

BIRC2 (UniProt Q13490)
inactive: lapatinib 0.025 | pictilisib -0.015 | crizotinib 0.012 | [1] -0.016 | duvelisib -0.027 | gandotinib 0.005 | tozasertib 0.007 | doramapimod -0.001 | bafetinib -0.168 | [2] 0.013 | nilotinib 0.026 | [3] 0.021 | dasatinib 0.023 | [4] 0.008 | [5] -0.002 | quisinostat -0.016 | tipifarnib 0.002 | [6] 0.016 | [7] -0.049 | [8] -0.01

BRD7 isoform 2 (UniProt Q9NPI1)
inactive: lapatinib 0.068 | pictilisib -0.08 | crizotinib -0.025 | [1] 0.132 | duvelisib 0.025 | gandotinib -0.18 | doramapimod -0.133 | bafetinib -0.004 | [2] -0.055 | nilotinib -0.112 | [3] -0.139 | dasatinib -0.018 | [4] 0.065 | [5] 0.148 | quisinostat -0.09 | tipifarnib -0.124 | [6] 0 | [7] -0.072 | [8] -0.022

BCL9L (UniProt Q86UU0)
inactive: lapatinib -0.014 | pictilisib -0.093 | crizotinib 0.069 | [1] -0.072 | duvelisib 0.011 | gandotinib 0.016 | doramapimod 0.05 | bafetinib -0.059 | [2] 0.035 | nilotinib 0.03 | [3] 0.006 | dasatinib -0.041 | [4] 0.039 | [5] 0.003 | quisinostat -0.081 | tipifarnib -0.059 | [6] -0.025 | [7] 0.042 | [8] -0.059

BAG1 (UniProt Q99933)
inactive: lapatinib 0.003 | pictilisib -0.014 | crizotinib 0.02 | [1] -0.104 | duvelisib -0.05 | gandotinib 0.154 | tozasertib 0.047 | doramapimod -0.028 | bafetinib -0.037 | [2] 0.108 | nilotinib 0.007 | [3] -0.008 | dasatinib 0.163 | [4] 0.045 | [5] 0.023 | quisinostat -0.018 | tipifarnib 0.029 | [6] 0.003 | [7] -0.029 | [8] -0.024

BCKDHB (UniProt P21953)
inactive: lapatinib 0.005 | pictilisib -0.043 | crizotinib -0.055 | [1] 0.083 | duvelisib 0.026 | gandotinib 0.015 | tozasertib 0.09 | doramapimod 0.064 | bafetinib -0.052 | [2] -0.017 | nilotinib 0.068 | [3] 0.007 | dasatinib 0.062 | [4] 0.084 | [5] 0.039 | quisinostat 0.031 | tipifarnib -0.069 | [6] -0.005 | [7] 0.007 | [8] -0.039

BCR (UniProt P11274)
inactive: lapatinib -0.02 | pictilisib -0.032 | crizotinib 0.034 | [1] -0.064 | duvelisib -0.049 | gandotinib -0.013 | tozasertib 0.031 | doramapimod -0.047 | bafetinib 0.019 | [2] 0.1 | nilotinib 0.108 | [3] 0.021 | dasatinib 0.043 | [4] -0.017 | [5] -0.018 | quisinostat -0.044 | tipifarnib -0.015 | [7] 0.028 | [8] 0.016

BABAM2 (UniProt Q9NXR7)
inactive: lapatinib 0.007 | pictilisib -0.047 | crizotinib 0.006 | [1] -0.088 | duvelisib -0.022 | gandotinib 0.031 | tozasertib 0.006 | doramapimod -0.049 | bafetinib 0.026 | [2] 0.03 | nilotinib 0.015 | [3] -0.018 | dasatinib -0.009 | [4] -0.018 | [5] -0.026 | quisinostat 0.008 | tipifarnib -0.014 | [6] 0.025 | [7] 0.002 | [8] 0.004
